Results from patent US20090196876A1.
No constants are given. Whether binding was seen depends on the method and setting. Some results given as binding are weak or reduced against the parent protein; the word gives no strength. Where a sequence is shown, tags or fusion partners need not be part of it.

Protein sequences, listed by entry. Tags and fused reporters are not part of them. Residues count along the entry.
UniProt P01579, residues 24-166: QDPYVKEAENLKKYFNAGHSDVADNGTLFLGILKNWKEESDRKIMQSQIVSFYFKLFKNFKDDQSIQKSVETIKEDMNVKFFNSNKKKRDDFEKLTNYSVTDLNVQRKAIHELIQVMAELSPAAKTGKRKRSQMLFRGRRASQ

Target: T1, UNQ1900-ECD-Fc (human) (UniProt Q6UXG8)
T1 sequence: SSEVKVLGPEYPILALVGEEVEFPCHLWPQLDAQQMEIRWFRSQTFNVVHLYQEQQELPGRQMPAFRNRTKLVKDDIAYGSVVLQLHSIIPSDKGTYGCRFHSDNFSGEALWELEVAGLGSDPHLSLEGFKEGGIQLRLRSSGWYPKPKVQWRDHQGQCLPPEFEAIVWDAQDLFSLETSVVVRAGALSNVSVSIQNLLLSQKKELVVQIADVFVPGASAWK
Experiment: BiaCore; UNQ1900-ECD-Fc coated on chip, 275 proteins tested as analytes

binding: binds
Substance: INF-gamma (from UniProt P01579 24-166) (ligand)
